From the supplement of paper PMC7125110
± gives the standard error. Many entries were measured with a wide error.

B1: glmS ribozyme (parent)
chain: AUAAAAGCGCCAGAACUACAGAAAUGUAGUUGACGAGGAGGAGGUUUAUCGAAUUUUCGGCGGAUGCCUCCAAA

Variants of: B1
Assay: self-cleavage kobs at 640 uM GlcN6P; higher = faster cleavage; RNA array
Conditions: with glucosamine-6-phosphate
Method in brief: (§1)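 Glucosamine-6-phosphate, from 40 μM to 10 mM in HEPES/KCl/Mg(OAc)2 buffer, was flowed over sequenced MiSeq chips carrying barcoded ribozyme variants transcribed in situ by E. coli RNA polymerase. A hybridised Cy3 probe tracked the variants at 37 °C as tiles were imaged over ~14 h. kobs, kcat and KM were obtained by fitting normalised per-tile medians to exponential decays and then applying weighted Michaelis–Menten fits across concentrations.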

Variant	self-cleavage kobs at 640 uM GlcN6P [s⁻¹]
U49G C68G	3.13e-05 ± 1.6e-05
A12U G13A A53G C70A C71G	2.41e-05 ± 2.1e-05
G41A U47C	1.87e-05 ± 1.2e-05
A14G C16G A64G U69G	6.85e-05 ± 3.7e-05
U30G A42G U65G C67U	4.36e-05 ± 2.7e-05
C68G C71U	1.3e-05 ± 1.3e-05
G13A G29A	2.8e-05 ± 1.8e-05
C16U G51C C68G	3.73e-05 ± 2.1e-05
A14U C58U C70G	4.71e-05 ± 3.6e-05
A12G C61U C67U C68G	2.67e-05 ± 2.7e-05
A42U U45C U55A	4.1e-05 ± 2.2e-05
A12G G62U C70G	4.32e-05 ± 2.3e-05
G13U A42G	0.000312 ± 0.00021

Variants of: B1
Assay: self-cleavage kobs at 160 uM GlcN6P; higher = faster cleavage; RNA array
Conditions: with glucosamine-6-phosphate
Method in brief: as §1

Variant	self-cleavage kobs at 160 uM GlcN6P [s⁻¹]
U49G C68G	2.34e-05 ± 2e-05
U45A A52U	2.39e-05 ± 2.2e-05
A48G C70U	2.32e-05 ± 1.7e-05
A14C G40U	2.07e-05 ± 1.4e-05
U31A U45C	4.82e-05 ± 2.6e-05
U30G C70A	1.88e-05 ± 1.1e-05
G63A C70A	2.08e-05 ± 1.7e-05

Variants of: B1
Assay: self-cleavage kobs at 40 uM GlcN6P; higher = faster cleavage; RNA array
Conditions: with glucosamine-6-phosphate
Method in brief: as §1

Variant	self-cleavage kobs at 40 uM GlcN6P [s⁻¹]
C34U G38A C70G	4.25e-05 ± 3.2e-05
U31G A33G U46G A52G U57C C67G	2.32e-05 ± 2.2e-05
A14C G40U	3.03e-05 ± 1.9e-05
U31A U45C	3.15e-05 ± 1.7e-05
A33G G35A U54G U69A	5.74e-05 ± 2.9e-05
A15U C16A	1.65e-05 ± 1.2e-05
C8A G29A C50G G66A C70G	2.7e-05 ± 2.3e-05
C8A G32A A33U U54G C70G	3.76e-05 ± 2e-05

Variants of: B1
Assay: self-cleavage kobs at 10000 uM GlcN6P; higher = faster cleavage; RNA array
Conditions: with glucosamine-6-phosphate
Method in brief: as §1

Variant	self-cleavage kobs at 10000 uM GlcN6P [s⁻¹]
U31G A33G U46G A52G U57C C67G	3.64e-05 ± 2e-05
A33G G35A U54G U69A	3.19e-05 ± 1.9e-05

Variants of: B1
Assay: self-cleavage kobs at 2500 uM GlcN6P; higher = faster cleavage; RNA array
Conditions: with glucosamine-6-phosphate
Method in brief: as §1

Variant	self-cleavage kobs at 2500 uM GlcN6P [s⁻¹]
G29A C68A	2.08e-05 ± 1.5e-05
A12G G32A	1.26e-05 ± 1.1e-05
C10A C68A	2.52e-05 ± 1.4e-05
U45A A52U	0.000237 ± 0.00014
C10G A36U C70G	1.88e-05 ± 1.8e-05
C16U G51C C68G	2.93e-05 ± 2.8e-05
A6G U46G	2.58e-05 ± 1.3e-05
G37C A39G U54A	2.43e-05 ± 1.7e-05
U30A A53U C70U	0.000196 ± 0.00014
G35C C50G G60U	2.96e-05 ± 2e-05
C8A C11U A14G C50G	6.13e-05 ± 3.2e-05
G13A U46C	4.56e-05 ± 2.6e-05
A6U G62C G63A C70A	3.2e-05 ± 3.1e-05
A14C C67U C70U	3.39e-05 ± 1.7e-05
G63A C70A	2.11e-05 ± 1.6e-05

Given as labelled records: entries from further up
A6G U46G
  self-cleavage kobs at 2500 uM GlcN6P [s⁻¹]: 2.58e-05 ± 1.3e-05
G37C A39G U54A
  self-cleavage kobs at 2500 uM GlcN6P [s⁻¹]: 2.43e-05 ± 1.7e-05
U30A A53U C70U
  self-cleavage kobs at 2500 uM GlcN6P [s⁻¹]: 0.000196 ± 0.00014

Variants of: B1
Assay: KM; higher = weaker cofactor use; RNA array
Conditions: with glucosamine-6-phosphate
Method in brief: as §1

Variant	KM [µM]
U55G U69A	124 ± 100
